Assays:
Type in all cases: cell-based
PC3 (prostate) = assay: In vitro cytotoxic activity (MTT) assay, PC3; details: Homo sapiens, PC-3; PC3 cells, exposed for 96 hours; read-out: IC50, 50% inhibition of cell proliferation, PC3 (prostate)
Procedure: (§1) Compounds 1-15 were screened for their in vitro cytotoxic activity utilizing a 3-(4,5-dimethyl-thiazol-2-yl)-2,5-diphenyltetrazolium bromide (MTT) assay against selected cancer human cell lines consisting of PC3 (prostate), HCT116 (colon), A375 (melanoma), H1299 (lung), MIAPaCa-2 (pancreas), HL60 (leukemia), MCF7 (breast), MDA-MB-231 (breast) (T. Mosmann, J. Immunol. Meth., 1983, 65, 55-63). The cells were cultured at 37° C. in RMPI1640 medium supplemented with 10% fetal bovine serum, 50 IU/mL penicillin, and 50 μg/mL streptomycin in a 5% CO2 incubator. All cells were sub-cultured 3 times/week by trypsinisation. Viable cells were seeded and allowed to adhere for 12 h before a test drug was added in 96-well plates at an initial density of 1.0×10^5 cells/mL. Tumour cell lines were separately exposed to various concentrations of the tested compounds followed by incubation at a temperature of 37° C. during 96 h inside a medium of fresh RMPI 1640. Cells were subsequently incubated at 37° C. using MTT at 0.5 mg/mL during 4 h. After removal of supernatant, formazan crystals were dissolved in isopropanol and the optical density was measured at 570 nm. CX-4945 was used as a positive control.

HCT116 (colon) = assay: In vitro cytotoxic activity (MTT) assay, HCT116; details: Homo sapiens, HCT-116; HCT116 cells, exposed for 96 hours; read-out: IC50, 50% inhibition of cell proliferation, HCT116 (colon)
Procedure: as §1

A375 (melanoma) = assay: In vitro cytotoxic activity (MTT) assay, A375; details: Homo sapiens, A-375; A375 cells, exposed for 96 hours; read-out: IC50, 50% inhibition of cell proliferation, A375 (melanoma)
Procedure: as §1

H1299 (lung) = assay: In vitro cytotoxic activity (MTT) assay, H1299; details: Homo sapiens, NCI-H1299; H1299 cells, exposed for 96 hours; read-out: IC50, 50% inhibition of cell proliferation, H1299 (lung)
Procedure: as §1

MIAPaCa-2 (pancreas) = assay: In vitro cytotoxic activity (MTT) assay, MIAPaCa-2; details: Homo sapiens, MIA PaCa-2; MIAPaCa-2 cells, exposed for 96 hours; read-out: IC50, 50% inhibition of cell proliferation, MIAPaCa-2 (pancreas)
Procedure: as §1

HL60 (leukemia) = assay: In vitro cytotoxic activity (MTT) assay, HL60; details: Homo sapiens, HL-60; HL60 cells, exposed for 96 hours; read-out: IC50, 50% inhibition of cell proliferation, HL60 (leukemia)
Procedure: as §1

MCF7 (breast) = assay: In vitro cytotoxic activity (MTT) assay, MCF7; details: Homo sapiens; MCF7 cells, exposed for 96 hours; read-out: IC50, 50% inhibition of cell proliferation, MCF7 (breast)
Procedure: as §1

MDA-MB-231 (breast) = assay: In vitro cytotoxic activity (MTT) assay, MDA-MB-231; details: Homo sapiens; MDA-MB-231 cells, exposed for 96 hours; read-out: IC50, 50% inhibition of cell proliferation, MDA-MB-231 (breast)
Procedure: as §1

## O=C(O)c1ccc2c(c1)nc(Nc1cccc(Cl)c1)c1ccncc12 [CX-4945]
PC3 (prostate)
  IC50: 2000 nM
HCT116 (colon)
  IC50: 2300 nM
A375 (melanoma)
  IC50: 4.1 µM
H1299 (lung)
  IC50: 2300 nM
MIAPaCa-2 (pancreas)
  IC50: 1000 nM
HL60 (leukemia)
  IC50: 3.7 µM
MCF7 (breast)
  IC50: 9.1 µM
MDA-MB-231 (breast)
  IC50: 6.2 µM

Reference: patent US11891390B1, “3-substituted amino-2-arylpyrrolo[2,3-c]pyridines as CK2 inhibitors” (KING FAISAL UNIVERSITY, priority 2023, dated 2024)
